Source: PubChem BioAssay AID2662 (National Center for Advancing Translational Sciences (NCATS), 2010)
Hit rate of the full screen: of about 290,000 compounds, about 110 (0.038%) were called active. This list was built around the results that the source calls inconclusive (neither active nor inactive); the mix of calls is not that of the screen. The call rests on the fitted dose curve; in most records, active means well fitted inhibition curve with a large enough effect in the polarisation, with a control signal flat (not every such curve was filed as active); inconclusive means small, poorly fitted or top-dose-only effect, or effect the other way, or a change in a side signal; inactive means no such curve, though single readings can be large or run the other way; the % refers to the polarisation. Potencies of inconclusive entries are doubtful fits and often do not repeat. “Side channel” marks fits to a control or component signal instead of the main read-out.

The chains behind the UniProt entries cited, without tags or fusion partners.
UniProt Q03164, whole entry, looked up: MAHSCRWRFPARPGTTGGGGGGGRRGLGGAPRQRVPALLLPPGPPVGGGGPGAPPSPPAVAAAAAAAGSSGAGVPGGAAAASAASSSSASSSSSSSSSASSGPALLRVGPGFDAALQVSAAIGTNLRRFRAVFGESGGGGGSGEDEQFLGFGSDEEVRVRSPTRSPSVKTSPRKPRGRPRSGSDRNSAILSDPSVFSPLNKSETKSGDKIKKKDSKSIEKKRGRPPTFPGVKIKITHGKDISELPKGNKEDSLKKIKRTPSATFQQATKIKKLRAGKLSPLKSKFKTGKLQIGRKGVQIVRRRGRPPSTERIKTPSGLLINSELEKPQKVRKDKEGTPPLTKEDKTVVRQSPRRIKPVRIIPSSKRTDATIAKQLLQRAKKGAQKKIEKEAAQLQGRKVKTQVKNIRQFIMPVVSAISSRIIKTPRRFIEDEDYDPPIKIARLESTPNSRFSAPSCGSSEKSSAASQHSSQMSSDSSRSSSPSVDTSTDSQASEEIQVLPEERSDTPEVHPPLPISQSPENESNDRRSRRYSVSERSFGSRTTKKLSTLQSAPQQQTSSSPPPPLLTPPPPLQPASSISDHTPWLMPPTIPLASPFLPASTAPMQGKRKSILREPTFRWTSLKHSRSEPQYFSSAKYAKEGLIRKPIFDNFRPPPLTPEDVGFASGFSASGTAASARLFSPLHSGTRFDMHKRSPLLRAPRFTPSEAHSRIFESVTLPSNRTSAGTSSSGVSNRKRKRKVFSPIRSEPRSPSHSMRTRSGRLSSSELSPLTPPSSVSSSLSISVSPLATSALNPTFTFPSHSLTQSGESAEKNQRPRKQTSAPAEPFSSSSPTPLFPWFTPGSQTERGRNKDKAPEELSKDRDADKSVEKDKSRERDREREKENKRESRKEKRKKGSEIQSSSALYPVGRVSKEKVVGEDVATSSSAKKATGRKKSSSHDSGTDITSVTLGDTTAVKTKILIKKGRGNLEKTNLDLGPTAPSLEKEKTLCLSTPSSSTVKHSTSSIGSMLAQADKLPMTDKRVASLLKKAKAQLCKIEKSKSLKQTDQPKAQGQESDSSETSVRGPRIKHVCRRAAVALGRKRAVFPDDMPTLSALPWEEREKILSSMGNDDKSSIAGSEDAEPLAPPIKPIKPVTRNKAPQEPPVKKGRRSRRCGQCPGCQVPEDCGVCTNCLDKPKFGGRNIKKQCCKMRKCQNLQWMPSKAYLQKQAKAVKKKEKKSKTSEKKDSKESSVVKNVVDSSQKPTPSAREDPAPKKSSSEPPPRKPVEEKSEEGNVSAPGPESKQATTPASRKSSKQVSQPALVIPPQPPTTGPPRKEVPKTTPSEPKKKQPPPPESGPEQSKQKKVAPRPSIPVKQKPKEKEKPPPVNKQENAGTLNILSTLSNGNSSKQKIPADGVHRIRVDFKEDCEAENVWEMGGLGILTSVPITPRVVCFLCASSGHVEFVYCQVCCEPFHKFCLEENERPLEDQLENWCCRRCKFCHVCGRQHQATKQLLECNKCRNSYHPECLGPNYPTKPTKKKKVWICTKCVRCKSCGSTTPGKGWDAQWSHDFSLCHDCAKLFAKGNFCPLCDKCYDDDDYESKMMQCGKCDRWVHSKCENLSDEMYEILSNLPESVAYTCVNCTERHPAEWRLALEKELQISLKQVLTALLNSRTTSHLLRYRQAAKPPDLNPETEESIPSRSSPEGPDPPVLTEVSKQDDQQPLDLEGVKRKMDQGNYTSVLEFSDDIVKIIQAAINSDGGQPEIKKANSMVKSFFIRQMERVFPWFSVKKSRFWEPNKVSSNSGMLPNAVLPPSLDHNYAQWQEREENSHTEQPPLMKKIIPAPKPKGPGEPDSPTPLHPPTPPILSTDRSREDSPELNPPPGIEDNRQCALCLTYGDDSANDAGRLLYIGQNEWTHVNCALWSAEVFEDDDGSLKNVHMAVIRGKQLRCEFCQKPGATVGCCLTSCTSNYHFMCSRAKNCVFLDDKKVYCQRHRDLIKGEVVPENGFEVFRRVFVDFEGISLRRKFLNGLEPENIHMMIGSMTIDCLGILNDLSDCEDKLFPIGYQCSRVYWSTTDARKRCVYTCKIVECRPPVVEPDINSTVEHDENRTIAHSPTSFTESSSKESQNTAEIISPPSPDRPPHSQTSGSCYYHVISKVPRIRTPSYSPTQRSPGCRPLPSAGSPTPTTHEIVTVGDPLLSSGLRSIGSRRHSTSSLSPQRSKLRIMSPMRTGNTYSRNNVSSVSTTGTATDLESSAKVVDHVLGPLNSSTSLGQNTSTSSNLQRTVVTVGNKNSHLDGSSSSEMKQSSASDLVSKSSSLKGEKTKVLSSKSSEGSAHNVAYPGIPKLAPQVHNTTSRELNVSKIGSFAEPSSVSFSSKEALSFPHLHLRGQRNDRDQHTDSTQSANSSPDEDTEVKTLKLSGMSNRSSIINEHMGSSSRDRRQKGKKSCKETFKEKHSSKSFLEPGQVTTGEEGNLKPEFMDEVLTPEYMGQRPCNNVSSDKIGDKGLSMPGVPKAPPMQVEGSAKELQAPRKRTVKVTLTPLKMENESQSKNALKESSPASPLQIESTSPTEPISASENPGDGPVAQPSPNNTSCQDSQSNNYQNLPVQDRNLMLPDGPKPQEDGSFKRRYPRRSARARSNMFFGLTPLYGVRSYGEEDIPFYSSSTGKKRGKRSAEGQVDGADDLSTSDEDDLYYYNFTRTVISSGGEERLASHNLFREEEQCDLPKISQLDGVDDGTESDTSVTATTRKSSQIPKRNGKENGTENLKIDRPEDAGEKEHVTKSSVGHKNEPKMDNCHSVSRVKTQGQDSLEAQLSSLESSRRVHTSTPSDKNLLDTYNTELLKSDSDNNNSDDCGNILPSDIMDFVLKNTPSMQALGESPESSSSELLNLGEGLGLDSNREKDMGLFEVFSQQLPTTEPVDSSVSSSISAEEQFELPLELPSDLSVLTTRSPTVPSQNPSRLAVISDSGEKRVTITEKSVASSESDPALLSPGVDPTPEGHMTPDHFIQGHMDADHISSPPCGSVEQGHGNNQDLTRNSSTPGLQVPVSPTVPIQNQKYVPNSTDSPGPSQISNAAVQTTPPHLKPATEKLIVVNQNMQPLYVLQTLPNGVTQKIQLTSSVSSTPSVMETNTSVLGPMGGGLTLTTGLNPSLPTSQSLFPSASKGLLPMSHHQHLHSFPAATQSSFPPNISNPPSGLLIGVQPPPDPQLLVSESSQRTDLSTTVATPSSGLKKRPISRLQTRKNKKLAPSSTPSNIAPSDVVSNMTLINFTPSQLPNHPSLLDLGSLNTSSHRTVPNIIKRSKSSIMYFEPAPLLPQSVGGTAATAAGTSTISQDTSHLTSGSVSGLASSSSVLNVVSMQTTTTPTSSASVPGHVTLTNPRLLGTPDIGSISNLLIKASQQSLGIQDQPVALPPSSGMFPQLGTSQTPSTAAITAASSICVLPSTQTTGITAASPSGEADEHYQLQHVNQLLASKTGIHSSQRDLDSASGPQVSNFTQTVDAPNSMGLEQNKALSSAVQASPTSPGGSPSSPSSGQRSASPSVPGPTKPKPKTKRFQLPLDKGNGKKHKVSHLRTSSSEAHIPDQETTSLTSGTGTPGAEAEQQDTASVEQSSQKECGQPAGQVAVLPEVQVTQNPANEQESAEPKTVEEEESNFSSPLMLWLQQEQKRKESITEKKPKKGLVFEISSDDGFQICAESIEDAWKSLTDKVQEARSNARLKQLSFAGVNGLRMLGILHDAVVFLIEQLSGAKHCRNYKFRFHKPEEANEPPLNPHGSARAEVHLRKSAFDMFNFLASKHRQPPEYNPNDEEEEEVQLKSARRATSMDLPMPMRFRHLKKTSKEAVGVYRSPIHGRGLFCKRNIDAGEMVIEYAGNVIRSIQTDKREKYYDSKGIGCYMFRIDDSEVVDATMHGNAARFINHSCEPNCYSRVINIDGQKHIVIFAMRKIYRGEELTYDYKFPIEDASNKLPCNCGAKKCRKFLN

Each compound was assayed against Histone-lysine N-methyltransferase 2A (Homo sapiens) (UniProt Q03164) (assay: qHTS Fluorescence Polarization Assay for Inhibitors of MLL CXXC domain - DNA interaction). Details: MLL-CXXC / FITC-HOXA9 DNA fluorescence polarization; series mostly up to 115 µM.
Procedure, shortened: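 Fluorescence polarization: 7 uM MLL-CXXC (stock) preincubated 5 min with compounds, then 50 nM fluorescein-HOX-A9 DNA (stock) added; 30 min ambient. Buffer 50 mM Tris-HCl pH 7.5, 50 mM NaCl, 1 mM DTT, 0.05% BSA.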
Potency means the concentration at half of the fitted maximal effect.

Row | Compound | Potency
1 | N#CC(C(=O)NC1CC1)c1nc2ccccc2nc1N1CCCC1 (centres undefined) | inconclusive: 63.1 µM [fluorescent, side channel, single point]
2 | CSCc1cc(N2CCCC2)nc(-c2ccccc2)n1 | inconclusive: 35.5 µM [quencher, side channel, partial curve]
3 | Cc1cc(C)c2c(=O)[nH]c(SCC(=O)c3ccc(F)c(C)c3)nc2n1 | inconclusive: 15.8 µM [inhibitor, single point]
4 | CNC(=O)COc1coc(CN2CCN(c3ccccc3OC)CC2)cc1=O | inactive
5 | COc1cccc(CNC(=O)CN(C)S(=O)(=O)c2cccc3cccnc23)c1 | inactive
6 | C#Cc1ccc([C@@H]2C=C(C(=O)N3CCOCC3)O[C@H](OCCCCO)C2)cc1 | inconclusive: 70.8 µM [inhibitor, single point]
7 | O=C(N/N=C/c1ccccc1O)c1cc[n+]([O-])cc1 | inconclusive: 7.08 µM [quencher, side channel, full curve]
8 | CCOC(=O)C1(CCc2ccccc2)CCN(Cc2c(O)cccc2OC)CC1 | inactive
9 | COc1ccc(S(=O)(=O)CC2(O)CCN(C(=O)CC(C)C)CC2)cc1 | inconclusive: 11.2 µM [fluorescent, side channel, full curve]
10 | COc1ccc(Nc2nc(N3CCCC3)c3ccccc3n2)cc1 | inconclusive: 22.4 µM [quencher, side channel, partial curve]
11 | Nc1cc(C(=O)OCC(=O)NCCCc2ccccc2)ccc1Cl | inconclusive: 70.8 µM [inhibitor, single point]
12 | COc1ccc(CNC(=O)Nc2ccc3c(c2)N(C)C(=O)CS3)cc1 | inconclusive: 28.2 µM [fluorescent, side channel, single point]
13 | O=C(Nc1cc(C(F)(F)F)ccc1-n1cncn1)c1ccc(Cl)cc1 | inactive
14 | CCOc1ccccc1/C=C/c1nc2ccccc2[nH]c1=O | inconclusive: 1.41 µM [quencher, side channel, full curve, poor fit]
15 | CCCN(CCC)C1=CC(=[N+]2CCCC2)CC(C)(C)C1 | inactive
16 | CNC(=S)Nc1cccc([N+](=O)[O-])c1 | inactive
17 | Cn1cnnc1SCCNS(=O)(=O)c1cccc([N+](=O)[O-])c1 | inactive
18 | Cc1cc(C)c2nc3nc(C)cc(C)c3c(N)c2c1 | inconclusive: 31.6 µM [quencher, side channel, partial curve]
19 | N=c1n(CCN2CCCCC2)c2ccccc2n1CC(O)c1ccc(Cl)c(Cl)c1 (centres undefined) | inconclusive: 70.8 µM [quencher, side channel, partial curve, poor fit]

Shown as labelled records: entries from further up
COc1ccc(Nc2nc(N3CCCC3)c3ccccc3n2)cc1
  Potency: inconclusive: 22.4 µM [quencher, side channel, partial curve]
Nc1cc(C(=O)OCC(=O)NCCCc2ccccc2)ccc1Cl
  Potency: inconclusive: 70.8 µM [inhibitor, single point]
